Positions count from the first letter of the chain named. These are yes or no findings as the source states them, for the method shown. In cells and extracts the contact can be indirect. Some entries that bind do so weakly or less than the wild type. Sequences can lack the tags named with a protein.

For one molecule, binding results are on record in publication PMC4925830.

Experiment [1] deals with T1, Fkh1-TAP (S. cerevisiae) (UniProt P40466).
T1 sequence: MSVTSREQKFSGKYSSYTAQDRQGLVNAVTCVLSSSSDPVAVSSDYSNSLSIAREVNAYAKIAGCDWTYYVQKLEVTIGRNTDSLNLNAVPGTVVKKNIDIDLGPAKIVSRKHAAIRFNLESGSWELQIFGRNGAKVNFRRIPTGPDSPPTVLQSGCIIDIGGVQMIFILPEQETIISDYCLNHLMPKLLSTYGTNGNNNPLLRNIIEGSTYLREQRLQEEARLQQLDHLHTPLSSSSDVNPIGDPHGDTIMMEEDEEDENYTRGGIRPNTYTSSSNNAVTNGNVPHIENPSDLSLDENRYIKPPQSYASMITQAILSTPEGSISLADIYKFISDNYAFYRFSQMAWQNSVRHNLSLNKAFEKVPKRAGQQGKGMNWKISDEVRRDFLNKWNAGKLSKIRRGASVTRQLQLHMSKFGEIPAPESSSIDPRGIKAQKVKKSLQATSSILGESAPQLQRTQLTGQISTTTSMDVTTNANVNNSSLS
Description: co-IP; Fkh1-TAP precipitated from yeast lysates (RIPA buffer lacking SDS) on IgG Sepharose 6 Fast Flow beads, 4°C, 90 minutes; Westerns with antibodies against TAP and GST; asynchronous log phase cells, and cells released synchronously from HU S phase arrest with samples every 30 minutes.

Experiment [2] has as its target T2, Fkh1^K-R (Fkh1 K373R-TAP) (S. cerevisiae) (UniProt P40466).
T2 sequence: T1 sequence with K373R
The description is as above.

B1: GST-Apc5 (protein, UniProt Q08683 1-685)
chain: MSKYGPLGITNFITPYDLCILILIHAHCSQDNGISVPTAVFLRLISPTRPSLEWNPLLKDNSNLRSSSIVPPPVLPILDNIIRILLDDKDGNKIALTLMGYLEAINGLDSINRLMMDLEKNCLVNNYRSMKMRTTSTRRQMTRASFLGTFLSTCIRKYQIGDFEMRETIWINLQNFKTVFKHTPLWLRFKDNVHIQKVKNCLLANDEISVEDQQMVEFFQHFNNGNDADSKTMNEENYGTLISIQHLQSIVNRQIVNWLDNTEFNLMGQEETSSTYEEQSGLVFDLLDTLSLNDATKFPLIFILKYLEAIKENSYQTALDSLHNYFDYKSTGNSQNYFHISLLSLATFHSSFNECDAAINSFEEATRIARENKDMETLNLIMIWIINFIEVHPEYANRFYITVEQIIKYLKNSSDVEDANIFSNAYKFETLLSMVKESKTAEVSSSLLKFMAITLQNVPSQNFDLFQSLVSYEVKFWKELGYESISDVYEKFLSKTSSSSLRNYDSSIINQDIKVAFKALEEDDFLKVKQYLLKSESLELDYDQKINLKYLRVKYLVKIGDYDLSMRLINQYVKECCEEVADSNWRFKFEIESINVLLLSDVGIRSLPKIIKLIDEYKEIGNPLRCVILLLKLCEVLIQVGKSMEAECLISCNLSTILEFPFVRKKTDELLESLSVEEDRDVQMT
Regarding B1, the binding entry in experiment [1] and in experiment [2] was “binds” each time.
